# Laboratory results from PubChem BioAssay AID540256 (National Center for Advancing Translational Sciences (NCATS), 2011).
# In all, about 300,000 compounds went through this assay and about 3,700 (1.2%) were called active. This list was built around the results that the source calls inconclusive (neither active nor inactive); the mix of calls is not that of the screen. The call rests on the fitted dose curve; tested in HEK293 cells. A potency beside an inconclusive call is a rough fit, not a confirmed value.
# Experiment: qHTS for Inhibitors of binding or entry into cells for Lassa Virus; further: nearly all actives have a fitted effect of over 50% in size
# Conditions: Lassa virus pseudotype entry inhibition, cell reporter; series mostly up to 37.9 µM
# Potency means the concentration at half of the fitted maximal effect.
row,SMILES,Potency
1,CN(C)c1ccc(NC(=O)CSC2=Nc3ccccc3C3=NC(CCC(=O)NCc4cccs4)C(=O)N23)cc1 (centres undefined),inactive
2,O=C(c1ccco1)N1CCN(c2ccc(Cl)cc2)CC1,"inconclusive: 1.83 µM [activator, partial curve, poor fit]"
3,CCCCN(CCCC)C(=S)NC(=O)C(C)(C)C,"inconclusive: 5.62 µM [inhibitor, single point]"
4,Cc1ccc(NC(=O)CSCC(=O)Nc2nnc(C)s2)cc1,inactive
5,O=C(NCCCn1ccnc1)/C(=C\c1ccco1)NC(=O)c1ccco1,inactive
6,COc1ccc(CC(=O)N2CCc3cc(OC)c(OC)cc3C2COc2ccc(F)cc2)cc1OC (centres undefined),"inconclusive: 3.16 µM [inhibitor, partial curve, poor fit]"
7,COc1cc(OC)cc(C(=O)N[C@H](C(=O)OCc2cc(=O)oc3cc(C)ccc23)C(C)C)c1,inactive
8,CC(=O)c1ccc(NC(=O)c2ccccc2Sc2ncnc3sc(C)c(C)c23)cc1,"inconclusive: 1.84 µM [inhibitor, partial curve, poor fit]"
9,COc1ccc(C(=O)Nc2nc(-c3ccc(S(=O)(=O)N4CCOCC4)cc3)cs2)cc1,"inconclusive: 29.1 µM [inhibitor, single point]"
10,O=C(NCc1ccccc1)c1ccc2oc(=O)n(Cc3ccccc3)c2c1,"inconclusive: 10 µM [inhibitor, partial curve, poor fit]"
11,O=C(COC(=O)CSc1ccc(Cl)cc1)NCCc1ccccc1,"inconclusive: 5.62 µM [inhibitor, single point]"
12,Cc1cccc(C)c1NC(=O)COC(=O)COc1ccc2c(C)cc(=O)oc2c1,"inconclusive: 1.26 µM [inhibitor, single point]"
13,Cc1cc(=O)[nH]c(SCc2cccc3ccccc23)n1,inactive
14,Cc1cc(SCC(=O)N/N=C/c2ccc(O)cc2O)nc2ccccc12,"inconclusive: 6.31 µM [inhibitor, partial curve, poor fit]"
15,Clc1ccc(-c2noc(COc3ccccc3)n2)cc1,"inconclusive: 20.6 µM [activator, single point]"
16,Cn1c(CO)cnc1SCC(=O)c1ccc(Cl)cc1,"inconclusive: 3.16 µM [inhibitor, full curve]"
17,Cc1ccc(O)c(C2=NOC(O)(C(F)(F)C(F)F)C2)c1 (centres undefined),"inconclusive: 2.91 µM [activator, partial curve, poor fit]"
18,Cc1ccc(-n2nc3c(N4CCC(C(=O)NCCc5ccccc5C)CC4)nnc(C)c3c2C)cc1,inactive
19,O=C(NCC1CCCCC1)c1cccc(S(=O)(=O)N2CCCC2)c1,inactive

# Structural class, the compounds so far with two or more sulfur atoms.
row,SMILES,Potency
1,CN(C)c1ccc(NC(=O)CSC2=Nc3ccccc3C3=NC(CCC(=O)NCc4cccs4)C(=O)N23)cc1 (centres undefined),inactive
4,Cc1ccc(NC(=O)CSCC(=O)Nc2nnc(C)s2)cc1,inactive
8,CC(=O)c1ccc(NC(=O)c2ccccc2Sc2ncnc3sc(C)c(C)c23)cc1,"inconclusive: 1.84 µM [inhibitor, partial curve, poor fit]"
9,COc1ccc(C(=O)Nc2nc(-c3ccc(S(=O)(=O)N4CCOCC4)cc3)cs2)cc1,"inconclusive: 29.1 µM [inhibitor, single point]"
